The values are deposited in ChEMBL (CHEMBL3988442, “University of Dundee, Small-Polar-MMV Screening Library” (2021)).

Chains of the proteins cited; added tags and fusions are not shown. Residues count along the entry.
UniProt P9WPC5, whole entry: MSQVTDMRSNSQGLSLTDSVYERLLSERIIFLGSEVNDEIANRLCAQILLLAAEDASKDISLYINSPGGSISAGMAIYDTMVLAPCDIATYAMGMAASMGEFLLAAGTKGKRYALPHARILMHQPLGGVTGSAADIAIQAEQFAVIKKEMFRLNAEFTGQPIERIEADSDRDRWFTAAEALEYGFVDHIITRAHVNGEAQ
UniProt P9WPC3, whole entry partner: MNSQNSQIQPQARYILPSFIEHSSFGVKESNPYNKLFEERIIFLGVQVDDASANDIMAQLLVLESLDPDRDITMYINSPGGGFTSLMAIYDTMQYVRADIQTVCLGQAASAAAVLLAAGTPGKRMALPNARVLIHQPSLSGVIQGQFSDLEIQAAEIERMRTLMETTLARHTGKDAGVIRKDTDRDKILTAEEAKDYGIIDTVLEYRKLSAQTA
UniProt I6X8D2, whole entry: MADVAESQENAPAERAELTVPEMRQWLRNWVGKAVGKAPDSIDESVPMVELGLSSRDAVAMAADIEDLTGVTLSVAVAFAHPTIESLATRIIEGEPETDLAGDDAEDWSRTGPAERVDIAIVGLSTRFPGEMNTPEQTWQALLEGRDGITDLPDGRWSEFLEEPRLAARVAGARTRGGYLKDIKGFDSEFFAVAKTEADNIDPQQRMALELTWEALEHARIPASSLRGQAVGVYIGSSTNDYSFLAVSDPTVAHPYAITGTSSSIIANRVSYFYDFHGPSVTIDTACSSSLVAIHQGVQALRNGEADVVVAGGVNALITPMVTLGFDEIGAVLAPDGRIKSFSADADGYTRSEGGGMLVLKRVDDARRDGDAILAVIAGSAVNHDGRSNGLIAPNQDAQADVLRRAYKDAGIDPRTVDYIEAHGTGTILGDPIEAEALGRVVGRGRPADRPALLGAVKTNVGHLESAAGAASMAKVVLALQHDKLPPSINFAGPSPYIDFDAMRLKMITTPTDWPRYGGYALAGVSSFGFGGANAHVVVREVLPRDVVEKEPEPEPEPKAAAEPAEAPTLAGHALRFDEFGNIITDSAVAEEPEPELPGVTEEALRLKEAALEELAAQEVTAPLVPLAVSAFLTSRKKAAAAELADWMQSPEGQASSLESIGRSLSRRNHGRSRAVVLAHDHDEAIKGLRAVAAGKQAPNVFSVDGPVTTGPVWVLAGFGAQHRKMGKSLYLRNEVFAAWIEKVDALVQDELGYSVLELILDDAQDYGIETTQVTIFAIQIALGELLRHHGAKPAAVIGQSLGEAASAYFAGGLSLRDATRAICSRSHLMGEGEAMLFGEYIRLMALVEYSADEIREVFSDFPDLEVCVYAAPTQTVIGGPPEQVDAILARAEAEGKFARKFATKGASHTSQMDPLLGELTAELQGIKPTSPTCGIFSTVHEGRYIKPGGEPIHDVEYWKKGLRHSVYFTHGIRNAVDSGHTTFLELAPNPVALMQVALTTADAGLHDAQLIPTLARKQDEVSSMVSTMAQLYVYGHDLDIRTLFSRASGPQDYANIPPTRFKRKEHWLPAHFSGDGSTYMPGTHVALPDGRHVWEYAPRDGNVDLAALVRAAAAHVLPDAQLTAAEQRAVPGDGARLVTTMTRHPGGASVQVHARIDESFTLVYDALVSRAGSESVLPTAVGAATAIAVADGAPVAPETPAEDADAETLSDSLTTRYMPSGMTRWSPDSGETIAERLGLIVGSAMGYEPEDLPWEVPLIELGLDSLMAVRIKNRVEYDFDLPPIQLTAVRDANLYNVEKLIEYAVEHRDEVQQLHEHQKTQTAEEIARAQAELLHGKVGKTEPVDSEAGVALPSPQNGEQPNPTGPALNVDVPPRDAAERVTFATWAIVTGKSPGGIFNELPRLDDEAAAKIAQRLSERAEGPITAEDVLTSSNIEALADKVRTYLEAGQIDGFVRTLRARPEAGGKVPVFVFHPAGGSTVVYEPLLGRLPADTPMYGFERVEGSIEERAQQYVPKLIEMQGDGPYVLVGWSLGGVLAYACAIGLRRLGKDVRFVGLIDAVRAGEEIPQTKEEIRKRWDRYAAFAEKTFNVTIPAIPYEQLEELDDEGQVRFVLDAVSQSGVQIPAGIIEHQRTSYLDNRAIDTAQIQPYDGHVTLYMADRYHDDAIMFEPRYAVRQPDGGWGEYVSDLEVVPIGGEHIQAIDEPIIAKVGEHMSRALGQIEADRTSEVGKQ
UniProt Q8IDJ8, 1-583: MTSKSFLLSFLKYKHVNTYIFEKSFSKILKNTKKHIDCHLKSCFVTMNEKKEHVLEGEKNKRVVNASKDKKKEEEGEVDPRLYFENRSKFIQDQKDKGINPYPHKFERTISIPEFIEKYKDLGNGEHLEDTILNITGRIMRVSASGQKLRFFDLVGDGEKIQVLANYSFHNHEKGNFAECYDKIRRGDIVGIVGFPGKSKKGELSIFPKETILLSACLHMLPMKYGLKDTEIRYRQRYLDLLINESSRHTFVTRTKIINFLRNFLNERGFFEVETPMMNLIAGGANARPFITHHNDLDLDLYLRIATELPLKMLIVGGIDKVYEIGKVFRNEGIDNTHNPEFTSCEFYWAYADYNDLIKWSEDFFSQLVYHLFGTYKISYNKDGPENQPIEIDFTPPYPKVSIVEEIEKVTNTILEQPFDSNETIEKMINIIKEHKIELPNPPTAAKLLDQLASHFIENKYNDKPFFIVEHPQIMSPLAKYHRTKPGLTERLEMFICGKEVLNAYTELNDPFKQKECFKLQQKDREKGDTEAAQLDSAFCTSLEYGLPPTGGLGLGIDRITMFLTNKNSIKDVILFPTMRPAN

ClpP1P2: 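ClpP1P2, Mycobacterium tuberculosis (UniProt P9WPC5 and UniProt P9WPC3). Protease assay of ClpP1P2, read by the AMC dye that it sets free. Compounds at 50 µM. Higher reads as stronger inhibition, judged from the few compounds that gave an IC50. Most other retested compounds had strongly negative values. Of about 69,000 compounds tested this way, about 10 (0.015%) reached 50% or more in at least one test.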
Leishmania in macrophages: 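Cell assay of Leishmania donovani living inside macrophages; the read-out is not stated. Tested at 30 µM. The record gives no direction; compounds that gave an IC50 in retests scored well above the rest, so higher reads as stronger inhibition. About 69,000 compounds were tested under these conditions; 1.5% (about 1,000) showed 50% or more at least once.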
Pks13 thioesterase: 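Polyketide synthase Pks13, Mycobacterium tuberculosis (UniProt I6X8D2). Enzyme assay of the thioesterase domain of polyketide synthase 13; the read-out is not stated. Compounds at 30 µM. Higher reads as stronger inhibition (inferred from which compounds were picked for retests). Of about 67,000 compounds tested this way, about 300 (0.46%) reached 50% or more in at least one test.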
PfKRS1: 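Lysine-tRNA ligase, Plasmodium falciparum 3D7 (UniProt Q8IDJ8). Enzyme assay of the cytosolic lysyl-tRNA synthetase in 384-well plates, read by luminescence. Tested at 30 µM. Higher reads as stronger inhibition, judged from the few compounds that gave an IC50. Size under these conditions: about 69,000 compounds, about 49 of them at 50% or above in at least one test.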
Toxoplasma: 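Assay of Toxoplasma gondii numbers, read through their beta-galactosidase reporter with a colour substrate. Concentration: 10 µM. The record gives no direction; the compounds picked for IC50 retests had high values, so higher reads as fewer parasites. Of about 67,000 compounds tested this way, about 260 (0.38%) reached 50% or more in at least one test.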

The filed quantity is “Percent Effect” (%). The record does not define 0% and 100%; most values in the screen are far below 50% and negative numbers occur (in some assays of this library far below -100). Compounds were drawn at random from those tested, without regard to their results. Two or more numbers in one place are separate tests of the same structure; such repeats can differ widely. A dash means the value is not listed here; it may have been measured.

SMILES: O=C(NC1CCC(O)CC1)c1cnc2c(cnn2C2CCCC2)c1 (centres undefined)
ClpP1P2: 3.411%
Leishmania in macrophages: 19.7%
Pks13 thioesterase: -22.72%
PfKRS1: 0.8475%
Toxoplasma: 2.394%

SMILES: CCOC(=O)c1ccc(S(=O)(=O)NCc2cccnc2N(C)C)cc1
ClpP1P2: 10.57%
Leishmania in macrophages: 21.62%
Pks13 thioesterase: -4.562%
PfKRS1: -1.329%
Toxoplasma: 22.53%

SMILES: Cc1nnc(N2CCNCC2)c(C(N)=O)c1C
ClpP1P2: -6.549%
Leishmania in macrophages: 0.2897%
Pks13 thioesterase: -6.073%
PfKRS1: 2.802%
Toxoplasma: 12.85%

SMILES: CCCN(C)CC1CCN(c2ncc(Br)cn2)C1 (centres undefined)
ClpP1P2: -3.67%
Leishmania in macrophages: -3.985%
Pks13 thioesterase: 12.56%
PfKRS1: 6.757%
Toxoplasma: 4.607%

SMILES: CC(C)CC(CCO)CNC(=O)N1CCC1(C)C (centres undefined)
ClpP1P2: 1.293%
Leishmania in macrophages: -2.84%
Pks13 thioesterase: -35.06%
PfKRS1: -1.046%
Toxoplasma: 6.785%

SMILES: [H][C@@]12CCN(C[C@@H]1CC)[C@@H](CNCc1ccc(N(C)C)cc1)C2
Leishmania in macrophages: 7.07%
Toxoplasma: -2.806%

SMILES: CN(C)CCN(Cc1cccc(F)c1)C(=O)c1ccn(C)c(=O)c1
ClpP1P2: -10.97%
Leishmania in macrophages: 18.09%
Pks13 thioesterase: -16.09%
PfKRS1: 3.436%
Toxoplasma: 7.199%

SMILES: [H][C@]12CCN(C(=O)Cc3ccc(C)cc3)[C@@]1([H])CCC(=O)N2
Leishmania in macrophages: -2.257% & -9.25%
Toxoplasma: -7.874%

SMILES: Cc1nccn1CCN(C)C(=O)C1CCN(C(=O)C2CCC2)CC1
ClpP1P2: -8.273%
Leishmania in macrophages: -9.475%
Pks13 thioesterase: -8.681%
PfKRS1: -4.791%
Toxoplasma: -28.96%

SMILES: Cc1cc(N2CCC(NC(C)Cc3ccsc3)CC2)nc(N)n1 (centres undefined)
ClpP1P2: -9.858%
Leishmania in macrophages: 71.35%
Pks13 thioesterase: -7.058%
PfKRS1: 3.613%
Toxoplasma: -4.302%

SMILES: O=C(O)c1ccccc1C1CCN(C2CCN(c3ccccc3)CC2)C1 (centres undefined)
ClpP1P2: 10.48%
Leishmania in macrophages: -5.941%
Pks13 thioesterase: -15.83%
PfKRS1: -2.2%
Toxoplasma: -6.531%

SMILES: [H][C@]12CCN(C(N)=O)[C@@]1([H])CC[C@@H](COCC(=O)N1CCCC1)O2
Leishmania in macrophages: 28.83%
Toxoplasma: -17.53%

SMILES: COCC(=O)N1CCN(C(=O)NC(C)C)CC2(CC(=O)N(C)C2)C1 (centres undefined)
ClpP1P2: -8.568%
Leishmania in macrophages: 56.1%
Pks13 thioesterase: 17.89%
PfKRS1: 4.952%
Toxoplasma: -13.52%

SMILES: CCOCCCNC(=O)c1cc(Br)c2c(c1)OCCO2
ClpP1P2: -3.704%
Leishmania in macrophages: 32.12%
Pks13 thioesterase: -18.66%
PfKRS1: 2.572%

SMILES: Cc1cccc(NCC(=O)Nc2cc(F)ccc2F)c1C(N)=O
ClpP1P2: -23.2%
Leishmania in macrophages: 29.07%
Pks13 thioesterase: -10.56%
PfKRS1: 7.156%
Toxoplasma: 6.865%

SMILES: Cn1cnnc1C1CCN(C(=O)COCc2ccccc2Cl)CC1
ClpP1P2: -11.34%
Leishmania in macrophages: -36.3%
Pks13 thioesterase: 8.371%
PfKRS1: 5.263%
Toxoplasma: 13.07%

SMILES: CCN1C[C@H]2CCN(C(=O)Cc3cccc(OC)c3)CC[C@H]2S1(=O)=O
ClpP1P2: -2.321%
Pks13 thioesterase: 2.667%
PfKRS1: 3.649%

SMILES: CCOc1ccc(C#N)cc1NCC(=O)Nc1cc(F)ccc1F
ClpP1P2: -0.8948%
Leishmania in macrophages: 28.93%
Pks13 thioesterase: -34.3%
PfKRS1: 4.018%

SMILES: O=C(CCn1cnc2ccccc21)N1CCN2CCCCC2C1 (centres undefined)
ClpP1P2: -11.29%
Leishmania in macrophages: 19.67%
Pks13 thioesterase: -6.988%
PfKRS1: -6.111%
Toxoplasma: 3.289%

SMILES: Cc1ccc(N(C)[C@@H]2CC[C@@H]3CN(C(=O)CC4CCOCC4)C[C@@H]32)nn1
ClpP1P2: 2.744%
Pks13 thioesterase: 2.594%
PfKRS1: 0.6102%

SMILES: CC(=O)N1C[C@@H](F)[C@@H](OCc2nc3ccc(C#N)cc3[nH]2)C1
ClpP1P2: -3.441%
Leishmania in macrophages: 34.87%
Pks13 thioesterase: -28.71%
PfKRS1: 8.158%
Toxoplasma: -0.1802%

SMILES: COC(=O)CNc1cc(C(=O)NCC(F)(F)F)cc(F)c1C
ClpP1P2: -42.91%
Leishmania in macrophages: 23.83%
Pks13 thioesterase: 38.17%
PfKRS1: 2.155%
Toxoplasma: -25.91%

SMILES: Cn1cc(-c2nnc3sc(C4CCC4)nn23)cn1
ClpP1P2: -3.348%
Leishmania in macrophages: 26.65%
Pks13 thioesterase: -5.74%
PfKRS1: 0.5887%

SMILES: COCCN1C(=O)[C@]2(CC[C@@H]3CN(C(=O)NC4CCCC4)C[C@@H]32)N=C1C
ClpP1P2: -1.491%
Pks13 thioesterase: -7.643%
PfKRS1: 3.132%

SMILES: Cc1nc2cc(=O)[nH]n2c(C)c1CC(=O)NC(C)C
ClpP1P2: 8.259%
Leishmania in macrophages: -60.44%
Pks13 thioesterase: -12.82%
PfKRS1: 3.406%
Toxoplasma: -3.459%

For reference, 3 entries once more:

SMILES,ClpP1P2,Leishmania in macrophages,Pks13 thioesterase,PfKRS1,Toxoplasma
CN(C)CCN(Cc1cccc(F)c1)C(=O)c1ccn(C)c(=O)c1,-10.97%,18.09%,-16.09%,3.436%,7.199%
CCOCCCNC(=O)c1cc(Br)c2c(c1)OCCO2,-3.704%,32.12%,-18.66%,2.572%,-
CC(C)CC(CCO)CNC(=O)N1CCC1(C)C (centres undefined),1.293%,-2.84%,-35.06%,-1.046%,6.785%